Source: PubChem BioAssay AID1159506 (NCATS, 2015).

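Luminescence from an EWS-FLI1 target-promoter (NR0B1) reporter, set against a CMV-promoter reporter, two days after silencing single genes in TC32 Ewing sarcoma cells.
Each siRNA was applied at 20 nM.
A z-score of the log NR0B1-over-CMV signal, less the median of siRNAs with the same seed; more negative means a stronger specific loss of the NR0B1 reporter.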

The strongest results of the screen are mostly left out here.
Sequences are the guide (antisense) strand, without overhang.

Sequence	gene	seed-corrected z-score
AGAGGUUUAAAUACAGAUG	TMA7	-1.497
AAAGAGUUCUCCACCGUCC	MAPKAPK2	-1.031
UUUGACCUCAUCGUAACUC	NIN	0.1158
UCUUCUUCAAGAGGCUGUC	APOC4	1.108
UUCCGGAAGAUUUCUCUGC	POLR1C	-0.936
UCUAUCUAAAUCAUUAAGG	GNAT3	-0.1391
UUCCUCACAUCGCAGAUGC	RYBP	-0.2614
UUGCUUUCUCCCGCAGUGC	ATXN7L1	-0.3232
UCCCUUUGUCGUCUUCUCC	C22orf46	0.9304
UUACGUUCUACCUGCGUCA	PINX1	0.675
AUAAGUGUCAUACUGCUUU	CLUAP1	0.7178
UUAAGGACUGGGAUGUUUU	BCAS4	0.05936
UCUUCGUUCAUGAAACUGC	PMCH	0.263
UUUGUAGGCAGUCUGCUGG	GPR119	-0.8986
UCAUUCUCCAGGUACAACU	PARP10	-1.652
UGUUGUUCCGUCUUUGCCU	TRIM69	-0.04397
UACAUUGCAGAUGAGGCUC	RPLP1	-0.05074
UCUUGUUCUAUACUGAUUC	RIOK2	0.5232
UAGGUUCUGAGUAGGUACC	AKR1D1	-0.1612
UACGUUUUGCUUCUAAGAG	SYTL5	0.5675
UUUACGAAAACUGCCUUUC	NXF3	-0.3608
ACGCGUUUUAGCUUUUGCC	HIST1H2AE	-0.2739
AAUCGUUUCUUUGGAAGGC	TMSB4X	0.5749
UUAUAGAUGACUCGGGUUG	UBQLNL	1.271
UCUUGGACCUCAUCAUAGG	CBLC	-0.4915
UUCGUUACGGCAGUGUCUG	EPB41L3	0.2964
UAGUUUAUCACGAGGCUGG	LOC728353	1.28
AAACUUCUCCUUGUGGUUC	PSMC3	-1.045
UCUUUUGUACGUUGAGCUC	STX11	0.988
UACCUAUCAACACUCAUGC	AGTR2	-0.4609
UGGUCACUCAGUACAGUGG	HECTD3	-0.04864
UUUCCAAAUACCUGCAUCC	CACNA1E	-0.7645
UGUUGAAGCAGUGACGGGC	RTBDN	1.638
UCUGCUAUUUCCCAGAAAC	TCL1B	-1.039
AUUGUCACCAGAUAACUCC	UROS	-0.7805
UUUGCUGCUCCACGGAUGC	LOC339902	-0.1305
UAGUCGUUUUUGCUCAUCC	MRPS33	-0.2599
UUUCGUUUUGGAAGAUAUC	BLM	0.6725
UUCUUGUAACCGACAUGCC	RRBP1	0.3936
AUAGUGUCGAUCUCGUUGC	ABHD16B	0.5543
UCUUCGUCAUGAGUCAUUG	CCDC93	0.01898
UCUUUAUCCCGUUCGGUUU	UAP1L1	-0.4754
UUCGAAUUAUGAUGCGUGC	TCTE1	0.3581
UAGUUGAUAACUUACAUCC	MYEOV	-0.1624
ACAGUAGUGCCCAAAAUCU	FNDC8	-1.976
ACAGGAACAACCCUAAGGC	CHMP1A	-1.04
AGAAGUCCGAUCUUCAUCU	WDFY1	0.6223
UGCUGAACAAGUAAGGACC	LOC344065	-0.3005
UAAUAAUUCAGACAUAUCC	SPACA7	0.3204
UUGUAGACAAUUUCGAUUU	RABEPK	0.7031
UGCAUUGUAACGAACACCC	CCDC130	-0.3564
AAUGUGGACACUCAAGGCC	C9orf16	1.635
UUGGAGUUAAGACUGAAGG	ZKSCAN1	-1.306
UUAGAAGUGAUGAUAUAAC	VTCN1	-0.01913
UACUUGUCCUUUGUUCAUC	TACC1	0.2723
UUAGCUCCGAGAACUGCUU	BRMS1	1.15
UAUAGAGCAAAGAUCAGCC	RAPH1	-0.8983
UUCCGAUUCAUCUGUACUG	FCHO2	-0.1237
UUCACGAACUCCUUCUCGC	FBXL16	0.0906
AUGGUGUCCAAGGCAGAGG	SNCG	-0.4992
UGUAAUAUAAGAGUUGAGG	ZNF595	-0.3952
UUUGUUCAUAGUUUGCCUU	PLEKHA6	-0.4729
UUGGUUGUAGAAAUGACUG	CCDC112	-0.7734
UGUCCGUUUAACGCGCUCC	LOC730236	-0.3238
UGUCUAGCAAGUGUCGAGG	ZNF724P	0.11
UUUAUUUUGAGGCUUAGCC	ABCF1	-0.3257
UGCUAUCUGGGCUUACUGC	ZNF808	0.3978
AUACUUGAUAGCAACAGGG	GPAT4	-0.5947
UUAGUCACGGCUUUCUUCG	HIST1H2BK	-0.05679
UUUCAGGAAAUUGUCUAUC	IFNK	0.8964
UCCAUGAACAUGAACCGCC	OGFOD3	1.163
UAUUCGCCGUCAAUGUUCC	ANGPTL2	0.7543
UUCCGUGAAAAAUCGCCUG	LCA5L	-0.5476
UAUCUCAUACCUGUUGUUG	ASIC1	-0.3288
UAAGUAAUUGUUGCCGAGG	SSR2	0.3878
UAUCUAUCCAGACCAGCUG	LRRC20	1.578
AAGCGUAUAAAUAACAGGG	OR4N5	-0.7314
AACUAUACCCAUAAGCUUC	TWISTNB	-0.7538
UAGUUGAUCAGCCUGUCUU	SPATA20	-0.4805
UUGUCUGAAAUCGUUGAUC	CNTLN	-0.71
AUACGUCUAAGUUCUAUUC	HSBP1	0.06176
UUUGGACGAAGUGGGAUUC	LSM14A	0.2965
UUCAUCUGAGCGGCUAUCC	UBXN7	-0.4852

For reference, 10 entries once more:

* AUACUUGAUAGCAACAGGG against GPAT4 | seed-corrected z-score -0.5947
* UAGGUUCUGAGUAGGUACC against AKR1D1 | seed-corrected z-score -0.1612
* AGAGGUUUAAAUACAGAUG against TMA7 | seed-corrected z-score -1.497
* ACGCGUUUUAGCUUUUGCC against HIST1H2AE | seed-corrected z-score -0.2739
* UUUGACCUCAUCGUAACUC against NIN | seed-corrected z-score 0.1158
* UUCCGAUUCAUCUGUACUG against FCHO2 | seed-corrected z-score -0.1237
* UUGGUUGUAGAAAUGACUG against CCDC112 | seed-corrected z-score -0.7734
* UCAUUCUCCAGGUACAACU against PARP10 | seed-corrected z-score -1.652
* UUCCUCACAUCGCAGAUGC against RYBP | seed-corrected z-score -0.2614
* AUGGUGUCCAAGGCAGAGG against SNCG | seed-corrected z-score -0.4992